Experimental data: patent US20100098789A1, “Compositions of ground/powdered nuts/nut butters with curcuminoids/turmeric/mix having improved health benefits and oxidative stability” (priority 2008, published 2010)
Entries after “also recorded” stand apart in the source; their conditions may differ.

Assay: Solubility of curcumin in almond oil and water (1 g/100 ml, stirred, filtered, filtrate colour)
Type: physicochemical
Text: (A) Almond oil (B) water. […] We performed the following experiment to compare the solubilities of curcumin in water and almond oil. […] The filtrate was yellow in color.

COc1cc(/C=C/C(=O)CC(=O)/C=C/c2ccc(O)c(OC)c2)ccc1O [curcumin, (1E,6E)-1,7-bis (4-hydroxy-3-methoxyphenyl) hepta-1,6-diene 3,5-dione]
Solubility in almond oil (1 g curcumin in 100 ml almond oil): very soluble; also recorded: much higher concentration of dissolved curcumin
Solubility in water (1 g curcumin in 100 ml water): not soluble; also recorded: negligible concentration of dissolved curcumin
